Taken from: PubChem BioAssay AID1259405 (NCATS, 2018)

Purpose: 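Knock-downs that lift recombinant protein yield in hamster ovary cells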 (primary screen)
Cell system: Chinese hamster CHO-K1 ovary cells with stable secreted eGFP expression
Knock-down reagent: single siRNA against mouse genes, 0.8 pmol siRNA per well (2 µl of 400 nM stock)
Time to read-out: 3 days
Detection: 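Per-well intracellular GFP measured by laser scanning cytometry, plus viability from ATP luminescence, each relative to plate median of non-targeting control wells, in %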
Reading the numbers: GFP, % of control: higher = more GFP per well, higher productivity; viability (ATP), % of control: higher = more viable cells (more ATP)
Rule for the call: 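Called active when intracellular GFP, relative to negative control, is at or above 120%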
In all, the deposit lists about 50,000 reagents; this is a random part of them. Over the whole deposit, about 4,000 (8%) are marked active. 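Mouse siRNA library applied to hamster cells; one well for each siRNA.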 Unmarked entries are inactive. The numbers tell different reagents against one gene apart. Reagent sequences are not shown.

Cdk5r2 #1 — GFP, % of control = 65; viability (ATP), % of control = 65.9
Cdk5r2 #2 — GFP, % of control = 65.6; viability (ATP), % of control = 101
Gde1 #1 — GFP, % of control = 134 (active); viability (ATP), % of control = 83
Gde1 #2 — GFP, % of control = 122 (active); viability (ATP), % of control = 59.9
Gde1 #3 — GFP, % of control = 102; viability (ATP), % of control = 87.5
Tlr1 #1 — GFP, % of control = 101; viability (ATP), % of control = 94.9
Tlr1 #2 — GFP, % of control = 65.7; viability (ATP), % of control = 65.4
Tlr1 #3 — GFP, % of control = 64.8; viability (ATP), % of control = 70.8
Crip1 #1 — GFP, % of control = 120 (active); viability (ATP), % of control = 38.9
Crip1 #2 — GFP, % of control = 57.4; viability (ATP), % of control = 50.7
Pygl #1 — GFP, % of control = 183 (active); viability (ATP), % of control = 112
Pygl #2 — GFP, % of control = 90.3; viability (ATP), % of control = 96.6
Pygl #3 — GFP, % of control = 119; viability (ATP), % of control = 120
Hnf1a #1 — GFP, % of control = 118; viability (ATP), % of control = 96.9
Hnf1a #2 — GFP, % of control = 106; viability (ATP), % of control = 83.5
Hnf1a #3 — GFP, % of control = 85.7; viability (ATP), % of control = 102
Ahsa2 #1 — GFP, % of control = 62.6; viability (ATP), % of control = 66
Ahsa2 #2 — GFP, % of control = 107; viability (ATP), % of control = 85.5
Ahsa2 #3 — GFP, % of control = 79.7; viability (ATP), % of control = 120
Dnajc9 #1 — GFP, % of control = 81.5; viability (ATP), % of control = 71
Dnajc9 #2 — GFP, % of control = 73.2; viability (ATP), % of control = 57.1
Dnajc9 #3 — GFP, % of control = 99.7; viability (ATP), % of control = 103
Scg3 #1 — GFP, % of control = 83.2; viability (ATP), % of control = 82.3
Scg3 #2 — GFP, % of control = 73; viability (ATP), % of control = 46.7
Scg3 #3 — GFP, % of control = 41.8; viability (ATP), % of control = 60.1
Ssr3 #1 — GFP, % of control = 73.3; viability (ATP), % of control = 61.7
Ssr3 #2 — GFP, % of control = 104; viability (ATP), % of control = 92.3
Ssr3 #3 — GFP, % of control = 39.6; viability (ATP), % of control = 45.9
Hnmt #1 — GFP, % of control = 85.1; viability (ATP), % of control = 86.4
Hnmt #2 — GFP, % of control = 61.8; viability (ATP), % of control = 69.5
Hnmt #3 — GFP, % of control = 70.8; viability (ATP), % of control = 74.1
Zfp960 #1 — GFP, % of control = 74.3; viability (ATP), % of control = 49.5
Zfp960 #2 — GFP, % of control = 110; viability (ATP), % of control = 67
Zfp960 #3 — GFP, % of control = 77.3; viability (ATP), % of control = 67.7
Klrk1 #1 — GFP, % of control = 98.4; viability (ATP), % of control = 70.2
Klrk1 #2 — GFP, % of control = 58.5; viability (ATP), % of control = 70.9
Klrk1 #3 — GFP, % of control = 57; viability (ATP), % of control = 34.7
Garin3 #1 — GFP, % of control = 49.9; viability (ATP), % of control = 57.1
Garin3 #2 — GFP, % of control = 34.5; viability (ATP), % of control = 40.1
Garin3 #3 — GFP, % of control = 77.9; viability (ATP), % of control = 62.9

Entries listed above with an active call, once more:
Gde1 #1 — GFP, % of control = 134 (active); viability (ATP), % of control = 83
Gde1 #2 — GFP, % of control = 122 (active); viability (ATP), % of control = 59.9
Crip1 #1 — GFP, % of control = 120 (active); viability (ATP), % of control = 38.9
Pygl #1 — GFP, % of control = 183 (active); viability (ATP), % of control = 112
